The chains behind the UniProt entries cited, without tags or fusion partners. Where a name states a change or a piece, a line headed by the entry shows the natural chain unless it says otherwise. Residues count along the entry.
UniProt P02647, residues 19-267: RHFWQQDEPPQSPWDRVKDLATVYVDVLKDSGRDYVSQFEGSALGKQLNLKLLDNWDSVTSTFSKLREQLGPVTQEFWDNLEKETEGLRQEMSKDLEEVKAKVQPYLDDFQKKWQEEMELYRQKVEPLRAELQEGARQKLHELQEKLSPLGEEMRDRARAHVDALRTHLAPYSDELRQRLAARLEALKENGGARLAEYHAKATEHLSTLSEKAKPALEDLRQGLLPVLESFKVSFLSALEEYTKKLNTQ
UniProt Q15465: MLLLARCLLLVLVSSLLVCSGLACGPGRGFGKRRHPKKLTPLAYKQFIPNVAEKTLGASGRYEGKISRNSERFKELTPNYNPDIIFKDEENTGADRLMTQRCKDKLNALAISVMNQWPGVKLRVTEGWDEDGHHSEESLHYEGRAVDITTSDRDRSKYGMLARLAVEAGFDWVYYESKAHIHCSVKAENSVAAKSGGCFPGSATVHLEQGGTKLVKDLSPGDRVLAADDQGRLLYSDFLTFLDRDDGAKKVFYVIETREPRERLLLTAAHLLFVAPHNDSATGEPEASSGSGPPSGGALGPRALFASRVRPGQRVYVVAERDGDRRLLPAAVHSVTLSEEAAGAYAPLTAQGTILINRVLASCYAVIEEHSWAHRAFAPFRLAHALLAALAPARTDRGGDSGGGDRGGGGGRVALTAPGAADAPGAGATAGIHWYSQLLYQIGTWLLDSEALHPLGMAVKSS

According to paper PMC3595218:

Biological target: human high-density lipoprotein (human) (UniProt P02647)
Assay: co-IP; supernatants of transfected HeLa cells grown 2 days in DMEM + 1% ITS with VLDL, LDL or HDL; 50 mM Tris pH 7.4; overnight with Protein-G agarose and antibodies to apoB or apoA1; washed with 50 mM Tris pH 7.4 + 0.15 M NaCl; WB; only the target purified

binding: no binding
Substance: Shh-N^C24S (from UniProt Q15465) (ligand)

No constants are given. Whether binding was seen depends on the method and setting. In cells and extracts the contact can be indirect.
